This assay concerns the target FLAG-H2ACG (Histone H2A, hCG_2039566) (human). Kind of assay: co-IP; 293T cells co-transfected with HA-U65 and FLAG-H2ACG or FLAG-H2AC7; lysates immunoprecipitated with an anti-FLAG antibody (legend; the methods name anti-HA-tag magnetic agarose), blotted with anti-HA or anti-FLAG.

Chains of the proteins cited; added tags and fusions are not shown.
UniProt Q9QJ19: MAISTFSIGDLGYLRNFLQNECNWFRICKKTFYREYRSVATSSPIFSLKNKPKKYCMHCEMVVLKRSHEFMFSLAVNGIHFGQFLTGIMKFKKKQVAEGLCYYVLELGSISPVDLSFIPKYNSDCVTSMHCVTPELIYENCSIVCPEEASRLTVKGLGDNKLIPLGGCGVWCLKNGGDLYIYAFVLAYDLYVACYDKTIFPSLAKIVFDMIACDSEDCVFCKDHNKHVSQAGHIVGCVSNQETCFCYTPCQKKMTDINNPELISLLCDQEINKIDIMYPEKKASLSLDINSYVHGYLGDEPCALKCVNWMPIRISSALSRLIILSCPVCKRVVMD

No constants are given. Whether binding was seen depends on the method and setting. In cells and extracts the contact can be indirect. Some results given as binding are weak or reduced against the parent protein; the word gives no strength.

As for “HA-U65 (HHV-6B tegument protein U65, HA-tagged) (from UniProt Q9QJ19 1-335)”, the binding entry is “binds”.

(Values after article PMC12548456.)
